Data reported in the supplement of paper PMC6411743.
± gives the standard deviation of the averaged measurements. This is a selection; strong and weak results do not stand in their true shares.

Key:
Assay in all cases: NP40-soluble protein abundance relative to vehicle (solubility fold change) (ratio); higher = more soluble protein in presence of AMP-PNP
[1] = biological target: T1, DNAJB2 (UniProt P25686)
T1 sequence (whole entry): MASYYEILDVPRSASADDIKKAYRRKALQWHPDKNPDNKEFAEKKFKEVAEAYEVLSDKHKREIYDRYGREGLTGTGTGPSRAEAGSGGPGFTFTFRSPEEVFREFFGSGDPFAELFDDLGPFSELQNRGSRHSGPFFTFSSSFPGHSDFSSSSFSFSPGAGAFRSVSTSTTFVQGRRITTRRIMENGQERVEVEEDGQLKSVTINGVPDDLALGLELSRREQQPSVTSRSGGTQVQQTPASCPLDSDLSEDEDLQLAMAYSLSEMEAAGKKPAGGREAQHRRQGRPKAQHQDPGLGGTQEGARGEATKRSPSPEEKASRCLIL
How it was run: (§1)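 Jurkat crude lysate prepared with a Dounce homogeniser was treated at eight concentrations spanning 0.1 to 10 mM, 10 min at room temperature then 3 min at 37 °C. Solubilisation with 0.8% NP40 and benzonase and ultracentrifugation preceded TMT labelling of the supernatant for LC-MS/MS. Fold change against the detergent-processed vehicle was determined per replicate from vsn-normalised intensities, across three independent experiments.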

[2] = biological target: T2, GALNS (UniProt P34059)
T2 sequence (whole entry): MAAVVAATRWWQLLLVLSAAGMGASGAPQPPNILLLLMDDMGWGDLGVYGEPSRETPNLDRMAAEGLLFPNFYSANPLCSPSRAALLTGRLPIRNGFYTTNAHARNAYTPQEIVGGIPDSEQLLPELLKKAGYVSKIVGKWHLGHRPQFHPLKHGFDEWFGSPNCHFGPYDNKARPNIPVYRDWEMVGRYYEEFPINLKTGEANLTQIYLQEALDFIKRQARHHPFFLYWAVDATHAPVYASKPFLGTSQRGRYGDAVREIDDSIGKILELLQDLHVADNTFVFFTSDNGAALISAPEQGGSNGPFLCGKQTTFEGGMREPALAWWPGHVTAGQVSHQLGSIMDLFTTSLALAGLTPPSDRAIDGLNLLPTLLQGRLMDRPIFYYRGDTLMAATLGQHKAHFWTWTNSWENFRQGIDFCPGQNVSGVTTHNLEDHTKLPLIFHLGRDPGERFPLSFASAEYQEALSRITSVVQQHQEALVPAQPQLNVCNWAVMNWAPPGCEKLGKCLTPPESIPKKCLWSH
How it was run: as §1

[3] = biological target: T3, GBP1 (UniProt P32455)
T3 sequence (whole entry): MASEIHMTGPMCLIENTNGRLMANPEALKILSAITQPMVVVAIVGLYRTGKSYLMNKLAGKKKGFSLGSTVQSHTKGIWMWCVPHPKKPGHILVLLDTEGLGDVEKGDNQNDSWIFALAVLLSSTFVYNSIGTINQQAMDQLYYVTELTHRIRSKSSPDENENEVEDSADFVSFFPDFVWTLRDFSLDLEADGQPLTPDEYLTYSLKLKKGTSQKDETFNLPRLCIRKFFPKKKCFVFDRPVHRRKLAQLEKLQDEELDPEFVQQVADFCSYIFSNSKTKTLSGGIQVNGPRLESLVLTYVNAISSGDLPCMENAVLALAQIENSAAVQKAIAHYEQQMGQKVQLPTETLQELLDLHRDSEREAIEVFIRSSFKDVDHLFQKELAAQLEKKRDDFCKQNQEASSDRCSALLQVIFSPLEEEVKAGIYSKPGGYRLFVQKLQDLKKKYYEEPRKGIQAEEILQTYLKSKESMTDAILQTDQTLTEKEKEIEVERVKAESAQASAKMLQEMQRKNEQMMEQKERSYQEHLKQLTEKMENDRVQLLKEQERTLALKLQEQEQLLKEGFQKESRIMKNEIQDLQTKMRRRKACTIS
How it was run: as §1

[4] = biological target: T4, GLRX (UniProt P35754)
T4 sequence (whole entry): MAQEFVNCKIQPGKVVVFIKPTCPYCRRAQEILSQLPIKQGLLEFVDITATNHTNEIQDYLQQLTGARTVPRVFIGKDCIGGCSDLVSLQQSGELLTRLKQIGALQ
How it was run: as §1

[5] = biological target: T5, GSTM3 (UniProt P21266)
T5 sequence (whole entry): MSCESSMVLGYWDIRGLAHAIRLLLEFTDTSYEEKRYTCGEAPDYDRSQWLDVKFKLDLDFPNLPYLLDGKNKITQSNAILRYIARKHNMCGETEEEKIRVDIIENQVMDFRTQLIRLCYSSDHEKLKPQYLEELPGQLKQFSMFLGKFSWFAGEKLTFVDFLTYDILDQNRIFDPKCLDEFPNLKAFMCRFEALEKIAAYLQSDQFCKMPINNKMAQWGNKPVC
How it was run: as §1

[6] = biological target: T6, JUND (UniProt P17535)
T6 sequence (whole entry): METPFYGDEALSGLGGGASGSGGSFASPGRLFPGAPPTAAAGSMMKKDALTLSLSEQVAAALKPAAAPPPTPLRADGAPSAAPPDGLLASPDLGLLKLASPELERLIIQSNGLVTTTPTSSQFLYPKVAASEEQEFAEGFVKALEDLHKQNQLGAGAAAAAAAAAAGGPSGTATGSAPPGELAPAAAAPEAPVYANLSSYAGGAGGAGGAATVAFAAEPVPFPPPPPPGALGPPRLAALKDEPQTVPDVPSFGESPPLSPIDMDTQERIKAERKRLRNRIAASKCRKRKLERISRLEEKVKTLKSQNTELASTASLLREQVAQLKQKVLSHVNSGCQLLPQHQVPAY
How it was run: as §1

[7] = biological target: T7, PHB (UniProt P35232)
T7 sequence (whole entry): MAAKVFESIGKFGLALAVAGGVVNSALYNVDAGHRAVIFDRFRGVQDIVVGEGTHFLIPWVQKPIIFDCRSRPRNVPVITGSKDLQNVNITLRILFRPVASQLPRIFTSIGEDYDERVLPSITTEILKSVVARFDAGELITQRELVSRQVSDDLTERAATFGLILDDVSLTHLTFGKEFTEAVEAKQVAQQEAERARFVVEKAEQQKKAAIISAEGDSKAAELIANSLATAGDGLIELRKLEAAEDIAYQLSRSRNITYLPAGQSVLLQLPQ
How it was run: as §1

[8] = biological target: T8, PPM1A (UniProt P35813)
T8 sequence (whole entry): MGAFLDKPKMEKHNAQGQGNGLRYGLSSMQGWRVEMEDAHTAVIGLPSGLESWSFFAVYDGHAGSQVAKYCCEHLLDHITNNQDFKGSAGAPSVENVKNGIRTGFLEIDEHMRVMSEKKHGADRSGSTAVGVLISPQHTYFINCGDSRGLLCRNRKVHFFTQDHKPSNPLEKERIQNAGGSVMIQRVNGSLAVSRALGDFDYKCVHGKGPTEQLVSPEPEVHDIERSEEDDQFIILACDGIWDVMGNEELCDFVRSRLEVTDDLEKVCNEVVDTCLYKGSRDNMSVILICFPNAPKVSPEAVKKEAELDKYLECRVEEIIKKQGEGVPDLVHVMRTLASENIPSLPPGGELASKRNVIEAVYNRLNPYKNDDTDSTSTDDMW
How it was run: as §1

## Nc1ncnc2c1ncn2[C@@H]1O[C@H](COP(=O)(O)OP(=O)(O)NP(=O)(O)O)[C@@H](O)[C@H]1O [adenylyl imidodiphosphate]
[1]; concentration: 1mM
  NP40-soluble protein abundance: 0.946 ± 0.043
[1]; concentration: 2mM
  NP40-soluble protein abundance: 0.991 ± 0.037
[1]; concentration: 4mM
  NP40-soluble protein abundance: 0.939 ± 0.017
[1]; concentration: 6mM
  NP40-soluble protein abundance: 0.943 ± 0.046
[1]; concentration: 8mM
  NP40-soluble protein abundance: 0.934 ± 0.015
[1]; concentration: 10mM
  NP40-soluble protein abundance: 0.9511 ± 0.0087
[2]; concentration: 1mM
  NP40-soluble protein abundance: 0.986 ± 0.018
[2]; concentration: 2mM
  NP40-soluble protein abundance: 0.972 ± 0.011
[2]; concentration: 4mM
  NP40-soluble protein abundance: 0.957 ± 0.04
[2]; concentration: 6mM
  NP40-soluble protein abundance: 0.963 ± 0.019
[2]; concentration: 8mM
  NP40-soluble protein abundance: 0.933 ± 0.034
[2]; concentration: 10mM
  NP40-soluble protein abundance: 0.975 ± 0.027
[3]; concentration: 1mM
  NP40-soluble protein abundance: 1.023 ± 0.0016
[3]; concentration: 2mM
  NP40-soluble protein abundance: 1.06 ± 0.043
[3]; concentration: 4mM
  NP40-soluble protein abundance: 1.02 ± 0.034
[3]; concentration: 6mM
  NP40-soluble protein abundance: 1.01 ± 0.024
[3]; concentration: 8mM
  NP40-soluble protein abundance: 0.996 ± 0.038
[3]; concentration: 10mM
  NP40-soluble protein abundance: 1.02 ± 0.043
[4]; concentration: 1mM
  NP40-soluble protein abundance: 0.997 ± 0.033
[4]; concentration: 2mM
  NP40-soluble protein abundance: 1.01 ± 0.028
[4]; concentration: 4mM
  NP40-soluble protein abundance: 1.01 ± 0.027
[4]; concentration: 6mM
  NP40-soluble protein abundance: 0.966 ± 0.016
[4]; concentration: 8mM
  NP40-soluble protein abundance: 0.977 ± 0.019
[4]; concentration: 10mM
  NP40-soluble protein abundance: 0.941 ± 0.029
[5]; concentration: 1mM
  NP40-soluble protein abundance: 1.01 ± 0.064
[5]; concentration: 2mM
  NP40-soluble protein abundance: 0.937 ± 0.029
[5]; concentration: 4mM
  NP40-soluble protein abundance: 1.02 ± 0.059
[5]; concentration: 6mM
  NP40-soluble protein abundance: 1.14 ± 0.13
[5]; concentration: 8mM
  NP40-soluble protein abundance: 1.13 ± 0.097
[5]; concentration: 10mM
  NP40-soluble protein abundance: 1.06 ± 0.078
[6]; concentration: 1mM
  NP40-soluble protein abundance: 0.977 ± 0.048
[6]; concentration: 2mM
  NP40-soluble protein abundance: 1.01 ± 0.022
[6]; concentration: 4mM
  NP40-soluble protein abundance: 0.955 ± 0.032
[6]; concentration: 6mM
  NP40-soluble protein abundance: 0.941 ± 0.078
[6]; concentration: 8mM
  NP40-soluble protein abundance: 0.933 ± 0.055
[6]; concentration: 10mM
  NP40-soluble protein abundance: 0.911 ± 0.051
[7]; concentration: 1mM
  NP40-soluble protein abundance: 0.956 ± 0.051
[7]; concentration: 2mM
  NP40-soluble protein abundance: 0.922 ± 0.1
[7]; concentration: 4mM
  NP40-soluble protein abundance: 0.914 ± 0.053
[7]; concentration: 6mM
  NP40-soluble protein abundance: 0.929 ± 0.066
[7]; concentration: 8mM
  NP40-soluble protein abundance: 0.916 ± 0.054
[7]; concentration: 10mM
  NP40-soluble protein abundance: 0.914 ± 0.061
[8]; concentration: 1mM
  NP40-soluble protein abundance: 1.07 ± 0.016
[8]; concentration: 2mM
  NP40-soluble protein abundance: 1.052 ± 0.0096
[8]; concentration: 4mM
  NP40-soluble protein abundance: 1.01 ± 0.033
